No constants are given. Whether binding was seen depends on the method and setting. Some entries that bind do so weakly or less than the wild type.
T1: Angiopoietin-2 (Ang2) (human, UniProt O15123 19-496, biotin label in Examples 22-24)
T1 construct: also called rhAng2; recombinant Ang2
T1 sequence (looked up): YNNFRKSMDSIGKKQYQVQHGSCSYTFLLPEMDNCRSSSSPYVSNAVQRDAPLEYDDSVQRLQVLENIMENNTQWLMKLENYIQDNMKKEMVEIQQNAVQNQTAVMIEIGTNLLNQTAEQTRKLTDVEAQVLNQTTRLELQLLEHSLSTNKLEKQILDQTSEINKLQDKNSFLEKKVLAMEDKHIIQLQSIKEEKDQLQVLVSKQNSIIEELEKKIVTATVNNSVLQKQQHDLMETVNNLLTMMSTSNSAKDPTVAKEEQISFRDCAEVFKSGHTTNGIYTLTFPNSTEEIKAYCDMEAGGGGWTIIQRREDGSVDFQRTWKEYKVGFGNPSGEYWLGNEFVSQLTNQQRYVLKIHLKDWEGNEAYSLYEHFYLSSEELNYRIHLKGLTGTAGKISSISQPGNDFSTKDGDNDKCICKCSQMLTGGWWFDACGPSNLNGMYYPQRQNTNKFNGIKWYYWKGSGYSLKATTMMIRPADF

B1: ANG182 (peptide)
peptide: RLHDCYFYPNPPHCYLWQ
B2: ANG159 (peptide)
peptide: PIEDCYFYPNPRHCYLQP
B3: ANG192 (peptide)
peptide: WLSQCYSYPNPPHCYTLF
B4: ANG131 (peptide)
peptide: RMADCYFYPNPQHCYTEG
B5: ANG158 (peptide)
peptide: HFSDCFFYPNPQHCYHMM
B6: ANG172 (peptide)
peptide: QLVDCLYYPNPPHCYESM
B7: ANG193 (peptide)
peptide: SSLHMLDCYYYPNPPHCY
B8: ANG142 (peptide)
peptide: TDTDCYFFPNPPHCYSPG
B9: ANG187 (peptide)
peptide: DCYFYPNPLYCYEDWDYT
B10: ANG148 (peptide)
peptide: GNFAHEECYFYPNPAHCY
B11: ANG210 (peptide)
peptide: LSLKCPLLPDWISCDEYY
B12: ANG150 (peptide)
peptide: NPTDCYFYPNPQHCYNWG
B13: ANG169 (peptide)
peptide: RSNLMTDCYYYPNPPHCY
B14: ANG143 (peptide)
peptide: IYDDCYIFPNPHHCYVGF
B15: ANG203 (peptide)
peptide: KCPMLPDWVSCDEWMLQK
B16: ANG133 (peptide)
peptide: FLGAMMDCYFFPNPPHCY
B17: ANG197 (peptide)
peptide: NYYYCYLSPNPPHCYLSF
B18: ANG161 (peptide)
peptide: VVLPSYDCYFYPNPPHCY
B19: ANG175 (peptide)
peptide: LQGRMIDCYSYPNPPHCY
B20: ANG138 (peptide)
peptide: PTDVLLECYLYPNPPHCY
B21: ANG190 (peptide)
peptide: GHMDCYYYPNPSHCYQQL
B22: ANG198 (peptide)
peptide: HFSDCYYFPNPPHCYESI
B23: ANG194 (peptide)
peptide: QSLSFLDCYFYPNPLHCY
B24: ANG201 (peptide)
peptide: RDTDCYFYPNPAHCYLGT
B25: ANG166 (peptide)
peptide: FWYSLDDCYFYPNPSHCY
B26: ANG149 (peptide)
peptide: QPRLLHDCYFYPNPSHCY
B27: ANG136 (peptide)
peptide: HSLIYHDCYFYPNPPHCY
B28: ANG176 (peptide)
peptide: QRDPLAACYIYPNPPHCY
B29: ANG151 (peptide)
peptide: YPFFLVDCYFFPNPLHCY
B30: ANG188 (peptide)
peptide: IWLDCYFYPNPPHCSLNS
B31: ANG153 (peptide)
peptide: SVAHVHGLLLLPESDALL
B32: ANG145 (peptide)
peptide: MPLIFSECYSYPNPPHCY
B33: ANG186 (peptide)
peptide: SSGPDIDCYFYPNPPHCY
B34: ANG174 (peptide)
peptide: WDVDCGFFPNPAYCYELG
B35: ANG132 (peptide)
peptide: DEQACYFYPNPAHCYQRD
B36: ANG137 (peptide)
peptide: LLSVLLECYFYPNPPHCY
B37: ANG139 (peptide)
peptide: SLPLRAFCYFPPNWPHCY
B38: ANG134 (peptide)
peptide: VYQDCYNFPNPVHCYRTT
B39: ANG144 (peptide)
peptide: PWHECYWYPNPPHCYGIL
B40: ANG154 (peptide)
peptide: GEYDCYFYPNPPHCYDRN
B41: ANG189 (peptide)
peptide: QWNDCYFYPNPPHCYGRQ
B42: ANG135 (peptide)
peptide: LVDYSMDCYFFPNPPHCY
B43: ANG199 (peptide)
peptide: EVLDCFFYPNPPHCYKAL
B44: ANG180 (peptide)
peptide: QDIDCYFYPNPPHCYHVT
B45: ANG164 (peptide)
peptide: FVSSAFDCYFYPNPAHCY
B46: ANG165 (peptide)
peptide: ALVECYFYPNPLHCYNTS

Molecular target: T1, Angiopoietin-2 (Ang2)
Assay: Example 48, method not detailed

binding, binds:
B1
B2
B3
B4
B5
B6
B7
B8
B9
B10
B11
B12
B13
B14
B15
B16
B17
B18
B19
B20
B21
B22
B23
B24
B25
B26
B27
B28
B29
B30
B31
B32
B33
B34
B35
B36
B37
B38
B39
B40
B41
B42
B43
B44
B45
B46

Reference: patent publication US20160046678A1 (ZYNGENIA, published 2016)
